Source: EP0559845B1, “Use of compounds in preventing endotoxin shock” (priority 1991, dated 1992)
Some results were stated once for a whole list of compounds, not compound by compound.

Tested on: LPS-induced GTPase activity in membranes isolated from RAW 264.7 cells
Assay: GTPase assay (release of 32Pi from γ-32P-GTP), LPS-stimulated activity
Format: biochemical
Details: macrophage membranes
Source text: We sought to directly evaluate the influence of LPS on possible G-protein function by examining agonist-enhanced GTPase activity, which is a hallmark of G-protein action. Moreover, because macrophages are one of the key cell types in the release of toxic mediators following an LPS challenge, we first assessed the capacity of LPS to influence GTPase activity in membranes isolated from RAW 264.7 cells, which is a highly LPS-responsive macrophage cell line. In these studies, GTPase activity was measured using a standard assay. The activity was determined using 2 µM γ-^32P-GTP in the presence of 0.1 mM ATP and 0.2 mM of the non-hydrolyzable ATP analog, AMPPNP, in order to minimize nonspecific nucleotidase activity in the membrane preparations. In the preferred practice of the present invention, the ability of a candidate compound to inhibit LPS-induced GTPase is assessed by measuring the release of ^32Pi from γ-^32P-GTP.
Under these conditions, GTPase activation was evident at 100 µg LPS/ml (roughly 6 µM assuming an average MW ∼ 17,000 kDa), and the maximal effect was seen by 300 µg/ml LPS. (2) To show adenosine mucleotide synergism with LPS-stimulated GTPase activity, either 10µM ATP or 30µM ADP replace the 0.1 mM ATP and 0.2 mM AMPPNP of the standard assay described by Cassel et al. and Neer et al.
In the preferred assay, a candidate compound (.001 - 1000 µM) is dissolved or suspended in 100µl of a reaction buffer containing 20mM HEPES (pH 7.4), 0.01mM ATP or ADP, membranes isolated from RAW 264.7 cells, 2µM γ-^32P-GTP (3-9 X 10cpm/pmol), 5mM MgCl2, 18µM LPS (based on an estimated MW of 17,000 kDa for E. coli 0111:B4 endotoxin), and 250 mM ammonium sulfate. The reaction is initiated by the addition of the γ-^32P-GTP and the mixture incubated at 30-37°C for 15 to 30 minutes. The reaction is terminated by the addition of 500µl of 5% trichloroacetic acid and 500µl of 0.1gm/ml acid-activated charcoal in 5% trichloroacetic acid. […] The extent of GTPase inhibition is measured by the decrease in the amount of ^32Pi released from γ-^32P-GTP. […]

Question: For phosphatidic acid, which “inhibition of LPS-stimulated GTPase activity” value (from here on “inhibition”) is on record?
Answer: nor inhibit

Question: Which “inhibition” value does the source give for phosphatidylserine here?
Answer: nor inhibit

Question: Which “inhibition” value does the source give for phosphatidylcholine here?
Answer: nor inhibit
